Source: PMC3078890, “Sponge non-metastatic Group I Nme gene/protein - structure and function is conserved from sponges to humans” (BMC Evolutionary Biology, 2011)
These are yes or no findings as the source states them, for the method shown. Binding seen in cells or lysates may run through a third protein. Some entries that bind do so weakly or less than the wild type.

The chains behind the UniProt entries cited, without tags or fusion partners.
UniProt P15531: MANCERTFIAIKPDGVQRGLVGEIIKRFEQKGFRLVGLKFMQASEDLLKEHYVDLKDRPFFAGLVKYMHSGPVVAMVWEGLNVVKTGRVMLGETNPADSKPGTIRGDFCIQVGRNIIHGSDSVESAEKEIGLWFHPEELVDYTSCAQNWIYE

Target: FLAG/Nme1 overexpressed in CAL 27 cells (clones K1 and K2) (human) (UniProt P15531)
Assay: co-IP; lysates of stably transfected CAL 27 clones; FLAG-tagged protein precipitated with anti-FLAG M2 affinity gel, blotted with anti-Nme1 or anti-Nme1 and anti-FLAG antibody

binding: binds
Substance: endogenous human Nme1 of CAL 27 cells (from UniProt P15531 1-152)
